Measured values from patent US7094524B2, “Thermally development imaging materials having backside stabilizers” (Eastman Kodak Company, priority 2003, dated 2006).

Assay: Shelf aging of photothermographic material with amine in backside coating, Example 14 (TABLE III)
Conditions: Level 0.5; amine on backside of the photothermographic material; aged 70° F. (21° C.) at 80% RH, 3 months

In the case of `C1CCC2=NCCCN2CC1` [AB-6, 1,8-diazabicyclo[5.4.0]undec-7-ene], the “Δ Dmin” value was −80%.

With `N=C(Nc1ccccc1)Nc1ccccc1` [AB-8] the “Δ Dmin” value was −90%.
